This passage reports IC50 results from ChEMBL document CHEMBL4130556, “Selective Estrogen Receptor Degraders (SERDs): A Promising Treatment to Overcome Resistance to Endocrine Therapy in ERα-Positive Breast Cancer” (ACS Med Chem Lett, 2017).

The experiment has as its system MCF7. The experiment is described as follows: cells. The conditions noted are these: Homo sapiens.

The compound `CN1CC=C(C2=C(c3ccc(O[C@H]4CCN(CCCF)C4)cc3)c3ccc(O)cc3CCC2)CC1` showed a half-inhibitory concentration (IC50) of 48 nM.

As usually defined, the IC50 is the concentration needed to halve the response being measured. The low end stands for inhibition by little substance, the high end for a need for much substance.
